Results are given in words; binding and its absence hold for the method and conditions named. Binding seen in cells or lysates may run through a third protein. Some binding calls cover weakened binding; strength is not graded here. Tags and fused reporters may be left off the sequences shown.
How the values were obtained:
[1] = target: T1, ABCG36-GFP (PEN3:PEN3-GFP), N. benthamiana (Arabidopsis thaliana) (UniProt Q9XIE2); test: FRET or BRET
T1 sequence: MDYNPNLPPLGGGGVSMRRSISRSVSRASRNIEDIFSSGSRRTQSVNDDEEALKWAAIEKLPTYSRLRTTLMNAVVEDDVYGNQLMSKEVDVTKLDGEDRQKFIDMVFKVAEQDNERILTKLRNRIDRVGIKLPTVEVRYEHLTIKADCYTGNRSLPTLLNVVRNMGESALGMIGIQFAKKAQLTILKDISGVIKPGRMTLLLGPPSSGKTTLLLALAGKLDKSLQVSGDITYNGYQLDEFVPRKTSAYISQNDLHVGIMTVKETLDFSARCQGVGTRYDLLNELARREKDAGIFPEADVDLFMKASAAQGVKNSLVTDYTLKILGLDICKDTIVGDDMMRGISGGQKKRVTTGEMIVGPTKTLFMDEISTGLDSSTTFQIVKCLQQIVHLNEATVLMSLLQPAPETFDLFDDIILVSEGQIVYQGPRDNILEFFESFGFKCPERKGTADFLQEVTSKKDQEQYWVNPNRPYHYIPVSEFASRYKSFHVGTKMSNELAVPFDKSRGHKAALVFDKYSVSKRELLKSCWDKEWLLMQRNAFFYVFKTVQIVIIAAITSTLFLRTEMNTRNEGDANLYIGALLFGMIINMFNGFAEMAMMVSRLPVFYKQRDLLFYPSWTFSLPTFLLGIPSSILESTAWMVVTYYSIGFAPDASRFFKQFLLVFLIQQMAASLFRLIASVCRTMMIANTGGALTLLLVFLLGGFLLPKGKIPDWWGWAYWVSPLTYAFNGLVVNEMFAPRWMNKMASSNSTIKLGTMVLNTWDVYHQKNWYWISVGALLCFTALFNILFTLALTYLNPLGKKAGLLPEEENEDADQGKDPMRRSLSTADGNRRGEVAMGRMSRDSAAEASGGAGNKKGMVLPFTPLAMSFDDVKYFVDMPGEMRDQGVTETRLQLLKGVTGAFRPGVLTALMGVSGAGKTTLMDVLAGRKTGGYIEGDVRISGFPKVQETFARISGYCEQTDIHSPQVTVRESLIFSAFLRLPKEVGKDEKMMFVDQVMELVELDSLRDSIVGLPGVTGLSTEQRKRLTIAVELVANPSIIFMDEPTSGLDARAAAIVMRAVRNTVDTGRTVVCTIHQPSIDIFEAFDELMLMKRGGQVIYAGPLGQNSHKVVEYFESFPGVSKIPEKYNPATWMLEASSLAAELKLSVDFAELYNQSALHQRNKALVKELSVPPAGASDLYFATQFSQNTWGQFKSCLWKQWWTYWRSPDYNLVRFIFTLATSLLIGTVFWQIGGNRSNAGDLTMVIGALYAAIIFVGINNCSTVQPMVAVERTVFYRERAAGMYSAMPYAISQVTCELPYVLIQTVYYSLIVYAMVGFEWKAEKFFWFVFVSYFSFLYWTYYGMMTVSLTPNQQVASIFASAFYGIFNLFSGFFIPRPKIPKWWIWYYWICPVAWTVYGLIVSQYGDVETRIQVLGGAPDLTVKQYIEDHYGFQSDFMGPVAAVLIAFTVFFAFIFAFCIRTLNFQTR

[2] = target: T1, ABCG36-GFP (PEN3:PEN3-GFP), N. benthamiana (Arabidopsis thaliana); test: co-IP

B1: ALK1-mCherry (35S:ALK1-mCherry) (receptor, UniProt Q9M8T0 24-627)
chain: SDLESDRRALLAVRNSVRGRPLLWNMSASSPCNWHGVHCDAGRVTALRLPGSGLFGSLPIGGIGNLTQLKTLSLRFNSLSGPIPSDFSNLVLLRYLYLQGNAFSGEIPSLLFTLPSIIRINLGENKFSGRIPDNVNSATRLVTLYLERNQLSGPIPEITLPLQQFNVSSNQLNGSIPSSLSSWPRTAFEGNTLCGKPLDTCEAESPNGGDAGGPNTPPEKKDSDKLSAGAIVGIVIGCVVGLLLLLLILFCLCRKRKKEENVPSRNVEAPVAAATSSAAIPKETVVVVPPAKATGSESGAVNKDLTFFVKSFGEFDLDGLLKASAEVLGKGTVGSSYKASFEHGLVVAVKRLRDVVVPEKEFRERLHVLGSMSHANLVTLIAYYFSRDEKLLVFEYMSKGSLSAILHGNKGNGRTPLNWETRAGIALGAARAISYLHSRDGTTSHGNIKSSNILLSDSYEAKVSDYGLAPIISSTSAPNRIDGYRAPEITDARKISQKADVYSFGVLILELLTGKSPTHQQLNEEGVDLPRWVQSVTEQQTPSDVLDPELTRYQPEGNENIIRLLKIGMSCTAQFPDSRPSMAEVTRLIEEVSHSSGSPNPVSD
- binding [1]: binds
- binding [2]: binds

— paper doi:10.1101/2022.05.11.491457
